Test results published in patent publication US8575069.
No constants are given. Whether binding was seen depends on the method and setting. Binding seen in cells or lysates may run through a third protein. Some binding calls cover weakened binding; strength is not graded here.

Assays:
[1] = target: biotinylated neuropeptide Y (UniProt P01303); test: pull-down of phage on bNPY immobilized on streptavidin-coated magnetic beads, SDS-PAGE and Western blot (anti-fd / anti-NPY)
[2] = target: streptavidin (on streptavidin-coated magnetic beads) (UniProt P22629); test: pull-down of phage on streptavidin-coated magnetic beads, SDS-PAGE and Western blot (anti-fd)

VQHNTKYSVVIR (peptide, not shown: large carriers) [NPY-binding peptide N1 (SEQ ID NO:1), displayed on bacteriophage]
binding [1]: binds

HGIDGLQMWHPQ (peptide, not shown: large carriers) [streptavidin-binding peptide C2 with HPQ motif (SEQ ID NO:5), displayed on bacteriophage]
binding [2]: binds

LTTQTLWDNHPQ (peptide, not shown: large carriers) [streptavidin-binding peptide C1 with HPQ motif (SEQ ID NO:4), displayed on bacteriophage]
binding [2]: binds

YHPNGMNPYTKA (peptide, not shown: large carriers) [NPY-binding peptide N2 (SEQ ID NO:2), displayed on bacteriophage]
binding [1]: binds

FPNWSLRPMNQM (peptide, not shown: large carriers) [NPY-binding peptide N3 (SEQ ID NO:3), displayed on bacteriophage]
binding [1]: binds
